According to article PMC4217029:
Numbering of substitutions follows the chain as printed. Numbers in names are those of the source. No constants are given. Whether binding was seen depends on the method and setting. Binding seen in cells or lysates may run through a third protein. Some binding calls cover weakened binding; strength is not graded here. Tags and fused reporters may be left off the sequences shown. Blank lines part the entries; values can stand above or below the binder they belong to.

How the values were obtained:
Assay in all cases: co-IP; Lac1-Lag1 association in cells with the wild-type proteins or the S23A S24A or S23E S24E mutants of both; data not shown; tags and bait not stated
[1] = molecular target: T1, tagged Lag1 (S. cerevisiae) (UniProt P38703)
T1 sequence: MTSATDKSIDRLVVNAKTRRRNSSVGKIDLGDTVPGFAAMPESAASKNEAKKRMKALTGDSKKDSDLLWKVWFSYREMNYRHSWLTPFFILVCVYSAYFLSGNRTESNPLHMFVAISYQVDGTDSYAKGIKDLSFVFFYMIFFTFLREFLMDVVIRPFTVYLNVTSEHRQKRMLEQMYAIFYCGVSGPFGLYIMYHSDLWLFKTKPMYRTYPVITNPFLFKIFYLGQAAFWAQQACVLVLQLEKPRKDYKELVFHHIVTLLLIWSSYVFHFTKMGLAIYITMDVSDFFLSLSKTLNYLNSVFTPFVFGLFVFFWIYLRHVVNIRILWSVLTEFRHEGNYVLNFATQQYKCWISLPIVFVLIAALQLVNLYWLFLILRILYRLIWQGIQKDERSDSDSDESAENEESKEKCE

[2] = molecular target: T2, tagged Lag1(S23E S24E) (S. cerevisiae) (UniProt P38703)
T2 sequence: T1 sequence with S23E, S24E

[3] = molecular target: T3, tagged Lag1(S23A S24A) (S. cerevisiae) (UniProt P38703)
T3 sequence: T1 sequence with S23A, S24A

binding [1]: binds
B1: 3xHA-Lac1 (protein, UniProt P28496 1-418)
chain: MSTIKPSPSNNNLKVRSRPRRKSSIGKIDLGDTVPSLGTMFETKESKTAAKRRMQRLSEATKNDSDLVKKIWFSFREISYRHAWIAPLMILIAVYSAYFTSGNTTKTNVLHRFVAVSYQIGDTNAYGKGINDLCFVFYYMIFFTFLREFLMDVVIRPFAIRLHVTSKHRIKRIMEQMYAIFYTGVSGPFGIYCMYHSDLWFFNTKAMYRTYPDFTNPFLFKVFYLGQAAFWAQQACILVLQLEKPRKDHNELTFHHIVTLLLIWSSYVFHFTKMGLPIYITMDVSDFLLSFSKTLNYLDSGLAFFSFAIFVVAWIYLRHYINLKILWSVLTQFRTEGNYVLNFATQQYKCWISLPIVFVLIGALQLVNLYWLFLIFRVLYRILWRGILKDDRSDSESDEESDESSTTPTDSTPTKKDI

binding [2]: binds
B2: 3xHA-Lac1(S23E S24E) (protein, UniProt P28496 1-418)
chain: B1 chain with S23E, S24E

binding [3]: binds
B3: 3xHA-Lac1(S23A S24A) (protein, UniProt P28496 1-418)
chain: B1 chain with S23A, S24A
